In the supplement of paper PMC10849652:
The list shows a part of the results.

Chains of the proteins cited; added tags and fusions are not shown. Lines headed by an entry give the natural chain unless they say otherwise; changes in a name come on top.
UniProt Q658P3: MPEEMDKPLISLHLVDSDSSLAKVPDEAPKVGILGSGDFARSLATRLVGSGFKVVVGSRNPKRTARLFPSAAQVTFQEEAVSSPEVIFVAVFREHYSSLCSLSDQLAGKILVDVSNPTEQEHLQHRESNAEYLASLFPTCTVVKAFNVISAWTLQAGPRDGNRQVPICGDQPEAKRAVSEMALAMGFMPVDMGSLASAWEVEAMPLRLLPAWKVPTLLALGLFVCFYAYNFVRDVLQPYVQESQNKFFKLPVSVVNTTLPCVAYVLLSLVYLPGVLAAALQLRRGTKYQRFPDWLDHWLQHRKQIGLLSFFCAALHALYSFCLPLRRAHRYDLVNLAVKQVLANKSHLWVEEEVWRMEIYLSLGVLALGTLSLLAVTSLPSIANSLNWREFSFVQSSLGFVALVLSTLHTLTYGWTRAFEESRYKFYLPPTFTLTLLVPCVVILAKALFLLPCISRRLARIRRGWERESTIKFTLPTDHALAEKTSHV
UniProt P42229: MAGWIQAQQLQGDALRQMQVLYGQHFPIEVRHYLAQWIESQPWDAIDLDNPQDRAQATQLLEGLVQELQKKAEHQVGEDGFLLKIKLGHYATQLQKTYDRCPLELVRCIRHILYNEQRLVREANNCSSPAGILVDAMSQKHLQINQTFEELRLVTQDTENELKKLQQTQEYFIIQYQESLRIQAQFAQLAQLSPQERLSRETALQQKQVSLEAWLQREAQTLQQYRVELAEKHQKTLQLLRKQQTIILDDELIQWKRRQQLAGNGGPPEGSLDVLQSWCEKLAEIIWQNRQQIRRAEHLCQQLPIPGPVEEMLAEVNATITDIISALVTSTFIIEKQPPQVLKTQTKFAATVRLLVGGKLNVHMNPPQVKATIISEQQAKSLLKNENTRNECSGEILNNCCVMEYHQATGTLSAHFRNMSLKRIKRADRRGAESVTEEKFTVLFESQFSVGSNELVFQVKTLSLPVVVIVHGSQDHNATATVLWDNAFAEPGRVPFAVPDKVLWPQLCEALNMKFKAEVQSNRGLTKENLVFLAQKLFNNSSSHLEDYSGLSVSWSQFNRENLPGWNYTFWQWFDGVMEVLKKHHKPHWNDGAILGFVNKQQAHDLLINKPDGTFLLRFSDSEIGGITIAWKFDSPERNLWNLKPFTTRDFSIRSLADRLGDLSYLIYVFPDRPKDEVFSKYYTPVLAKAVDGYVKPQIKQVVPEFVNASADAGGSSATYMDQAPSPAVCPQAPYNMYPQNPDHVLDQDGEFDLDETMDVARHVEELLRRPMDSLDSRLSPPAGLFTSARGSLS
UniProt Q9HBM1: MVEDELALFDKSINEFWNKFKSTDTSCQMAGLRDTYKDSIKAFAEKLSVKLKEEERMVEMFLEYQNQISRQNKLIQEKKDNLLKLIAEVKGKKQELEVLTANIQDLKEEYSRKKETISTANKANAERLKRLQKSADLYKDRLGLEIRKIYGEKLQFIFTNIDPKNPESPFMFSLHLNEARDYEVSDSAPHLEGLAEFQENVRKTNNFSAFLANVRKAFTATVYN
UniProt Q07955, whole entry, looked up: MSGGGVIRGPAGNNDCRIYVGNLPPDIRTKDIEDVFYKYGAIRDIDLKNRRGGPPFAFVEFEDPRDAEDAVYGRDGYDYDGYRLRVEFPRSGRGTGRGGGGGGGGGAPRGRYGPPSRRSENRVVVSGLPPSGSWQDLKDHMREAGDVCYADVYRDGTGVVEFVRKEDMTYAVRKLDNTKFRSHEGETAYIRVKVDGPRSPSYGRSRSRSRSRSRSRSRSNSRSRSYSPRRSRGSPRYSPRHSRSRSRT
UniProt Q9Y5M8: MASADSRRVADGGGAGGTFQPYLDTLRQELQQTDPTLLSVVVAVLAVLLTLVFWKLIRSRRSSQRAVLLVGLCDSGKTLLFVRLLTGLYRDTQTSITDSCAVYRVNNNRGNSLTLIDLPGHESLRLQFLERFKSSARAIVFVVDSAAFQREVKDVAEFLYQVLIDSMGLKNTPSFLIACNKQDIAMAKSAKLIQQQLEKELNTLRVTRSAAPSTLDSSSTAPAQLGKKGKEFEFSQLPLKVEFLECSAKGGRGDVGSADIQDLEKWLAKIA
UniProt Q13247: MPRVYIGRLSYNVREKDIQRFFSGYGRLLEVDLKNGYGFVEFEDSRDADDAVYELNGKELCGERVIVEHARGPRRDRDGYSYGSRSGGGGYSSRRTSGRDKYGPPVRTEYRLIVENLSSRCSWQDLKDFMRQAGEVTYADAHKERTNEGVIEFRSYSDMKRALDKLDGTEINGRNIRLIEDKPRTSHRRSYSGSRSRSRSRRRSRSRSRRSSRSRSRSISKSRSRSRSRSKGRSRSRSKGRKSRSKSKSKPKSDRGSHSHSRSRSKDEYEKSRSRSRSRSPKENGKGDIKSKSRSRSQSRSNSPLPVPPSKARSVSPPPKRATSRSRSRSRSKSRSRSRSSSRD
UniProt Q8NBT2: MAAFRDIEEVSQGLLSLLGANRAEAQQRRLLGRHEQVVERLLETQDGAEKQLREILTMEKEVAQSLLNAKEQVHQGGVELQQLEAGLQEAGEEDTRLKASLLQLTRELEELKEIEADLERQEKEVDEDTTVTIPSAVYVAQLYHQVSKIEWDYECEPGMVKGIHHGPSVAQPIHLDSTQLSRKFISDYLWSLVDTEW
UniProt Q96EA4: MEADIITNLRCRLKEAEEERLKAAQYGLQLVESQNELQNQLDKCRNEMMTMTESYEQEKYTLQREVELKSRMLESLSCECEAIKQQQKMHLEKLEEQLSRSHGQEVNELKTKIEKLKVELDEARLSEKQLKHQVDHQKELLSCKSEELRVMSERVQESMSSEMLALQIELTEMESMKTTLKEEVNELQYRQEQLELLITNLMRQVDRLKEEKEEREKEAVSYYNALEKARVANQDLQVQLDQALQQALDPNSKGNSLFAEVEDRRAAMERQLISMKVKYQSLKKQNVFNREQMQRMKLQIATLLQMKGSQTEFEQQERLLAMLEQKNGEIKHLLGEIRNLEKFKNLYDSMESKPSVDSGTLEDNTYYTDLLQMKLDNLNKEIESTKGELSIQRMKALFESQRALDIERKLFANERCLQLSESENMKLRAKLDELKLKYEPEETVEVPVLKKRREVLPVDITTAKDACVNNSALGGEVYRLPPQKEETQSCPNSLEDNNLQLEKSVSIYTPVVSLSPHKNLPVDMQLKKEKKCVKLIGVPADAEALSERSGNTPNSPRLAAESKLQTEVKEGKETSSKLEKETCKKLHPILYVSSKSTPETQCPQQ
UniProt Q9BUA3: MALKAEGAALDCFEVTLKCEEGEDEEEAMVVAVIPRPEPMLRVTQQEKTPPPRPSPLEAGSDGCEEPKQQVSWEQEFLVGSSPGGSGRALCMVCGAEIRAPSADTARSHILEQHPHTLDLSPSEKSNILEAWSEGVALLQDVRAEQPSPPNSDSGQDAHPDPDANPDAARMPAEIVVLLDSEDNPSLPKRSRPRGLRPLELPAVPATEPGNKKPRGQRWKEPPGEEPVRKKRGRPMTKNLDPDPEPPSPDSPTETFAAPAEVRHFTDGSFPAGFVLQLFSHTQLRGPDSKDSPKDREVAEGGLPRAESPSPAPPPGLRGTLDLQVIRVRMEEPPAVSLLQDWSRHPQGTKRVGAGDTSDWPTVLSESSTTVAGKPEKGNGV
UniProt Q9NP77: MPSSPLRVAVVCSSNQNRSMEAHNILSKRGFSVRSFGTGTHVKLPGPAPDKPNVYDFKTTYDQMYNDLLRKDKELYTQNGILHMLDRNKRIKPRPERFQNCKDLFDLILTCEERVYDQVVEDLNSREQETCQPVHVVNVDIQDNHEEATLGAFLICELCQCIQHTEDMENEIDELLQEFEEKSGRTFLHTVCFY
UniProt Q92783: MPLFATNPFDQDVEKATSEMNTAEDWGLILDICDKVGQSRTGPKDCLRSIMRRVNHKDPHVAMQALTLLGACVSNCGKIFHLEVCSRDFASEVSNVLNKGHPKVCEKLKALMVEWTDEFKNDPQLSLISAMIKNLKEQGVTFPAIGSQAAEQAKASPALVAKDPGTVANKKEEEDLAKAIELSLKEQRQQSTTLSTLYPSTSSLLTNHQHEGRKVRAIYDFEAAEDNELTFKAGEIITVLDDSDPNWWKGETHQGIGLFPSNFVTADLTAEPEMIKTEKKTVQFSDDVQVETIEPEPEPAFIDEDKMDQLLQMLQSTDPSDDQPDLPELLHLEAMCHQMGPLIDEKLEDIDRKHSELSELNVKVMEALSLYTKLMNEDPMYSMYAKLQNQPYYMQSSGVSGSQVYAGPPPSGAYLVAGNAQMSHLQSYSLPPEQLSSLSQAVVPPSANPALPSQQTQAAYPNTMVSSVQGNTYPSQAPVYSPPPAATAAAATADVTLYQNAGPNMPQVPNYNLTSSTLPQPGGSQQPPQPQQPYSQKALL
UniProt Q8TCT7: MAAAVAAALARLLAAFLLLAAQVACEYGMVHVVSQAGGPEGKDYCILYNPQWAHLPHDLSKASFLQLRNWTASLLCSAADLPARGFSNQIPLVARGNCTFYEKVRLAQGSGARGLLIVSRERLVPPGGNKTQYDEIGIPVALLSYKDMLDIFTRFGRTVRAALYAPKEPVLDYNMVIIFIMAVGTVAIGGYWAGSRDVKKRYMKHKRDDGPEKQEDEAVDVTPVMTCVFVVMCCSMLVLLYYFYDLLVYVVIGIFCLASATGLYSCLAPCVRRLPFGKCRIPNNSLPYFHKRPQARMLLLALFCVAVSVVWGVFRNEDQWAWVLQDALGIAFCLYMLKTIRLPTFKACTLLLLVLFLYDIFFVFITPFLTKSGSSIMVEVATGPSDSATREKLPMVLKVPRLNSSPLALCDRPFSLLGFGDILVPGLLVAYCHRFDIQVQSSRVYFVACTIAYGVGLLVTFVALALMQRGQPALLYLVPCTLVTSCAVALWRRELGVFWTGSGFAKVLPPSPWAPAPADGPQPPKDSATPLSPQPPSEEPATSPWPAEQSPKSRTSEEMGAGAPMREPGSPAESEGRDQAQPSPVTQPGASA

Tests used:
Test in all cases: log2 fold change, soluble protein after heating vs DMSO (PISA); higher = thermal stabilisation; K562 cells, 10 uM, 30 min; active = over 0.2 and 3.5 SD of the protein, either way, in both replicates (recomputed)
saracatinib = compound: CN1CCN(CCOc2cc(OC3CCOCC3)c3c(Nc4c(Cl)ccc5c4OCO5)ncnc3c2)CC1 [saracatinib]
Method in brief: (§1)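 Soluble protein was defined as the supernatant after 21,000xg for 90 min. It came from K562 cells at 2×10^6 cells/mL given 10 μM compound for 30 min, heated in aliquots for 3 min across 48°C-58°C, pooled, and extracted in PBS with 0.5% NP-40 at 4°C, and was quantified by TMTpro 16plex LC-MS/MS with equalised channel sums. Thermal stability against control samples, from duplicates, is reported as log2 fold change.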

sotrastaurin = compound: CN1CCN(c2nc(C3=C(c4c[nH]c5ccccc45)C(=O)NC3=O)c3ccccc3n2)CC1 [sotrastaurin]
Method in brief: as §1

Tubastatin A = compound: CN1CCc2c(c3ccccc3n2Cc2ccc(C(=O)NO)cc2)C1 [Tubastatin A]
Method in brief: as §1

[1] = compound: CNC(=O)C1=CC=CC=C1NC2=NC(=NC=C2Cl)NC3=C(C=C(C=C3)N4CCOCC4)OC
Method in brief: as §1

defactinib = compound: CNC(=O)c1ccc(Nc2ncc(C(F)(F)F)c(NCc3nccnc3N(C)S(C)(=O)=O)n2)cc1 [defactinib]
Method in brief: as §1

rucaparib = compound: CNCc1ccc(-c2[nH]c3cc(F)cc4c3c2CCNC4=O)cc1 [rucaparib]
Method in brief: as §1

[2] = compound: CNc1nc(-c2ccc3c(N)n[nH]c3c2)cc(N2C[C@@H](C(=O)NC3CCCCC3)CC[C@H]2C)n1
Method in brief: as §1

encorafenib = compound: COC(=O)N[C@@H](C)CNc1nccc(-c2cn(C(C)C)nc2-c2cc(Cl)cc(NS(C)(=O)=O)c2F)n1 [encorafenib]
Method in brief: as §1

[3] = compound: COC(=O)[C@H](CCSC)NC(=O)C1=C(C=C(C=C1)NC[C@H](CS)N)C2=CC=CC=C2
Method in brief: as §1

alvocidib = compound: CN1CC[C@H](c2c(O)cc(O)c3c(=O)cc(-c4ccccc4Cl)oc23)[C@H](O)C1 [alvocidib]
Method in brief: as §1

Measured: log2 fold change

STEAP3 isoform 2 (UniProt Q658P3)
inactive: saracatinib -0.02 | sotrastaurin -0.027 | Tubastatin A -0.027 | [1] -0.025 | defactinib -0.067 | rucaparib 0.055 | [2] -0.024 | encorafenib 0.012 | [3] 0.006

STAT5A (UniProt P42229)
inactive: saracatinib -0.093 | sotrastaurin -0.14 | Tubastatin A 0.088 | [1] -0.001 | defactinib -0.273 | rucaparib 0.006 | [2] 0.054 | encorafenib 0.088 | [3] -0.059

SPC25 (UniProt Q9HBM1)
inactive: saracatinib -0.013 | sotrastaurin -0.042 | alvocidib -0.086 | Tubastatin A 0.028 | [1] 0.009 | defactinib -0.04 | rucaparib -0.01 | [2] -0.035 | encorafenib 0.025 | [3] 0.024

SRSF1 (UniProt Q07955)
inactive: saracatinib 0.031 | sotrastaurin 0.105 | alvocidib 0.219 | Tubastatin A 0.031 | [1] -0.167 | defactinib 0.137 | rucaparib 0.257 | [2] 0.015 | encorafenib 0.06 | [3] 0.047

Retrieved one by one from above (two):
SRSF1 (UniProt Q07955)
inactive: saracatinib 0.031 | sotrastaurin 0.105 | alvocidib 0.219 | Tubastatin A 0.031 | [1] -0.167 | defactinib 0.137 | rucaparib 0.257 | [2] 0.015 | encorafenib 0.06 | [3] 0.047

SPC25 (UniProt Q9HBM1)
inactive: saracatinib -0.013 | sotrastaurin -0.042 | alvocidib -0.086 | Tubastatin A 0.028 | [1] 0.009 | defactinib -0.04 | rucaparib -0.01 | [2] -0.035 | encorafenib 0.025 | [3] 0.024

Going on with the list:

SRPRB (UniProt Q9Y5M8)
inactive: saracatinib -0.03 | sotrastaurin -0.036 | Tubastatin A 0.004 | [1] 0.087 | defactinib 0.026 | rucaparib 0.151 | [2] 0.032 | encorafenib -0.013 | [3] -0.064

SRSF6 (UniProt Q13247)
inactive: saracatinib 0.032 | sotrastaurin 0.031 | Tubastatin A 0.092 | [1] -0.331 | defactinib 0.032 | rucaparib 0.227 | [2] -0.113 | encorafenib 0.096 | [3] 0.018

SPC24 (UniProt Q8NBT2)
inactive: saracatinib 0.063 | sotrastaurin -0.109 | alvocidib -0.06 | Tubastatin A 0.028 | [1] 0.004 | defactinib -0.096 | rucaparib -0.045 | [2] -0.01 | encorafenib 0.026 | [3] -0.058

SPDL1 (UniProt Q96EA4)
inactive: saracatinib 0.04 | sotrastaurin 0.024 | alvocidib -0.037 | Tubastatin A 0.19 | [1] 0.054 | rucaparib 0.234 | [2] -0.084 | encorafenib 0.11

SPTAN1 isoform 2 (UniProt Q13813)
inactive: saracatinib 0.099 | sotrastaurin -0.223 | alvocidib -0.045 | Tubastatin A -0.002 | [1] 0.034 | defactinib -0.046 | rucaparib -0.023 | [2] -0.109 | encorafenib -0.025 | [3] -0.001

SPINDOC (UniProt Q9BUA3)
inactive: saracatinib 0.185 | sotrastaurin -0.23 | Tubastatin A -0.121 | [1] -0.039 | defactinib 0.068 | rucaparib 0 | [2] -0.02 | encorafenib 0.057 | [3] 0.049

SSU72 (UniProt Q9NP77)
inactive: saracatinib -0.02 | sotrastaurin -0.14 | alvocidib -0.186 | Tubastatin A 0.267 | [1] 0.066 | defactinib -0.081 | [2] 0.019 | [3] -0.058

STAM (UniProt Q92783)
inactive: saracatinib 0.045 | sotrastaurin 0.05 | alvocidib 0.007 | Tubastatin A 0.007 | [1] 0 | defactinib -0.019 | rucaparib -0.089 | [2] -0.072 | encorafenib 0.02 | [3] 0.073

SPPL2B (UniProt Q8TCT7)
inactive: saracatinib -0.009 | sotrastaurin 0.074 | Tubastatin A -0.031 | [1] 0.026 | defactinib -0.014 | rucaparib -0.036 | [2] -0.06 | encorafenib 0.029 | [3] 0.069
